{
  "source": "the supplement of paper PMC8104966",
  "note": "Some of the results follow. Single values are uncertain here, since repeats match poorly.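 U2OS cells expressing ACE2 were combined with U2OS cells expressing full-length spike, and imaging quantified fusion as the fraction of nuclei displaying both cell types' fluorescent markers. Non-toxic compounds with a fusion z-score under -3, i.e., over three standard deviations below the plate's DMSO wells, are called inhibitory hits.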",
  "data": [
    {"tested_on": "U2OS ACE2 x SARS-CoV-2 spike co-culture", "experiment": "cell-cell fusion (fraction fused) z-score vs plate DMSO control; higher = more fusion", "conditions": "30 µM; 5 h; toxicity class: non-toxic, passed QC", "values": [
      {"compound": "CN(C)CCOc1ccc(/C(=C(/CCCl)c2ccccc2)c2ccccc2)cc1.O=C(O)CC(O)(CC(=O)O)C(=O)O", "cell-cell fusion (z-score)": "inactive: 0.508"},
      {"compound": "CCCn1c(=O)c2[nH]c(-c3ccc(S(=O)(=O)O)cc3)nc2n(CCC)c1=O", "note": "[1,3-Dipropyl-8-p-sulfophenylxanthine]", "cell-cell fusion (z-score)": "inactive: 0.937"},
      {"compound": "O=C1NC(=O)/C(=C/c2ccc3nccnc3c2)S1", "cell-cell fusion (z-score)": "inactive: 0.918"},
      {"compound": "CCC(NC(C)C)C(O)c1ccc(O)c(O)c1.CS(=O)(=O)O", "note": "(configuration not stated)", "cell-cell fusion (z-score)": "inactive: -0.576"},
      {"compound": "COc1ccc(CN2CCN(C(c3ccc(F)cc3)c3ccc(F)cc3)CC2)c(OC)c1OC", "cell-cell fusion (z-score)": "inactive: 0.15"},
      {"compound": "Cc1nnc(C(C)C)n1[C@@H]1C[C@H]2CC[C@@H](C1)N2CC[C@H](NC(=O)C1CCC(F)(F)CC1)c1ccccc1", "note": "[Maraviroc]", "cell-cell fusion (z-score)": "inactive: 2.66"},
      {"compound": "CCn1cc(C(=O)O)c(=O)c2cc(F)c(N3CCNCC3)cc21", "note": "[Norfloxacin]", "cell-cell fusion (z-score)": "inactive: 2.13"},
      {"compound": "CCN(CC)CCCCCCCCOC(=O)c1cc(OC)c(OC)c(OC)c1.Cl", "note": "[TMB-8 hydrochloride]", "cell-cell fusion (z-score)": "inactive: 1.51"},
      {"compound": "CC1(C)C[C@@H]1C(=O)N/C(=C\\CCCCSC[C@H](N)C(=O)O)C(=O)O", "note": "[Cilastatin]", "cell-cell fusion (z-score)": "inactive: 2.24"},
      {"compound": "CC1CCN(CC[C@H]2CCCN2S(=O)(=O)c2cccc(O)c2)CC1.Cl", "cell-cell fusion (z-score)": "inactive: 1.68"},
      {"compound": "O=C1NCc2c1c1c3ccccc3[nH]c1c1[nH]c3ccccc3c21", "note": "[Staurosporine aglycone]", "cell-cell fusion (z-score)": "inactive: -1.63"},
      {"compound": "O=C([O-])C(O)[C@H](O)[C@H](O)[C@H](O)[C@H](O)CO.O=C([O-])C(O)[C@H](O)[C@H](O)[C@H](O)[C@H](O)CO.[Ca+2]", "note": "(some centres not stated)", "cell-cell fusion (z-score)": "inactive: 1.97"},
      {"compound": "Cl.O=C(O)Cc1c[nH]cn1", "note": "[Imidazole-4-acetic acid hydrochloride]", "cell-cell fusion (z-score)": "inactive: 0.817"},
      {"compound": "COCCOC(=O)C1=C(C)NC(C)=C(C(=O)OC/C=C/c2ccccc2)C1c1cccc([N+](=O)[O-])c1", "note": "(configuration not stated) [Cilnidipine]", "cell-cell fusion (z-score)": "active: -3.45"},
      {"compound": "CCCCCN(C)CCC(O)(P(=O)([O-])O)P(=O)(O)O.O.[Na+]", "cell-cell fusion (z-score)": "inactive: 3.05"},
      {"compound": "CCC1(C)OC(=O)N(C)C1=O", "note": "(configuration not stated)", "cell-cell fusion (z-score)": "inactive: 1.99"},
      {"compound": "C[C@@H](Cc1ccc(C=O)cc1)NC[C@@H](O)c1ccc(O)c(NCO)c1.C[C@@H](Cc1ccc(C=O)cc1)NC[C@@H](O)c1ccc(O)c(NCO)c1.O=C(O)/C=C/C(=O)O", "note": "[Formoterol]", "cell-cell fusion (z-score)": "inactive: -0.35"},
      {"compound": "Cl.NC(Cc1ccc(O)cc1)C(=O)O", "note": "(configuration not stated)", "cell-cell fusion (z-score)": "inactive: 1.83"},
      {"compound": "NC(=O)CCCCC1CCSS1", "note": "(configuration not stated)", "cell-cell fusion (z-score)": "inactive: 2.1"},
      {"compound": "COc1ccc(/C=C/C(=O)Nc2ccccc2C(=O)O)cc1OC", "cell-cell fusion (z-score)": "inactive: 1.25"},
      {"compound": "CCC(C)(C)C(=O)O[C@H]1C[C@@H](C)C=C2C=C[C@H](C)[C@H](CC[C@@H]3C[C@@H](O)CC(=O)O3)[C@H]21", "note": "[Simvastatin]", "cell-cell fusion (z-score)": "active: -7.41"},
      {"compound": "CCC(C)(C)C(=O)O[C@H]1C[C@@H](C)C=C2C=C[C@H](C)[C@H](CC[C@@H]3C[C@@H](O)CC(=O)O3)[C@H]21", "cell-cell fusion (z-score)": "inactive: 0.666"},
      {"compound": "CC(N)O.Cc1cc(CC(C)CC(C)(C)C)n(O)c(=O)c1", "note": "(configuration not stated)", "cell-cell fusion (z-score)": "inactive: 0.562"},
      {"compound": "O=C(NC1CN2CCC1CC2)c1cc2ccoc2cn1", "note": "(configuration not stated)", "cell-cell fusion (z-score)": "inactive: 3.29"},
      {"compound": "O=C(Nc1ccc(C(=O)O)c(O)c1)c1ccccc1", "cell-cell fusion (z-score)": "inactive: 0.067"},
      {"compound": "CS(=O)(=O)OCCCCOS(C)(=O)=O", "cell-cell fusion (z-score)": "inactive: 1.27"},
      {"compound": "CNC(C)[C@H](O)c1ccccc1.Cl", "note": "(some centres not stated)", "cell-cell fusion (z-score)": "inactive: -0.763"},
      {"compound": "CC1(C)CC2C1CC[C@]1(C)CCC3C(C(=O)O)CC(=O)O[C@@]32C1", "note": "(some centres not stated) [3-HYDROXY-4-(SUCCIN-2-YL)-CARYOLANE delta-LACTONE]", "cell-cell fusion (z-score)": "inactive: 2.27"},
      {"compound": "Nc1ccn([C@@H]2O[C@H](CO)[C@@H](O)[C@H]2O)c(=O)n1", "note": "[Cytarabine]", "cell-cell fusion (z-score)": "inactive: 0.642"},
      {"compound": "CCCCCCCC(=O)N[C@H](CN1CCCC1)[C@H](O)c1ccc2c(c1)OCCO2", "note": "[Eliglustat]", "cell-cell fusion (z-score)": "inactive: 1.69"},
      {"compound": "Oc1ccc(Cl)cc1", "cell-cell fusion (z-score)": "inactive: 1.26"},
      {"compound": "C[C@H]1COc2c(N3CCN(C)CC3)c(F)cc3c(=O)c(C(=O)O)cn1c23", "note": "[Levofloxacin]", "cell-cell fusion (z-score)": "inactive: 1.74"},
      {"compound": "CC(C(=O)O)c1ccc(N2Cc3ccccc3C2=O)cc1", "note": "(configuration not stated)", "cell-cell fusion (z-score)": "inactive: -0.362"},
      {"compound": "COc1ccc2c(c1OC)C(=O)O[C@H]2[C@@H]1c2cc3c(cc2CCN1C)OCO3", "note": "[(+)-Hydrastine]", "cell-cell fusion (z-score)": "inactive: 2.64"},
      {"compound": "C[C@H](CCC(=O)[O-])[C@H]1CCC2C3C(=O)CC4CC(=O)CC[C@]4(C)C3CC(=O)[C@@]21C.[Na+]", "note": "(some centres not stated)", "cell-cell fusion (z-score)": "inactive: 2.17"},
      {"compound": "CCCN(CCC)C(=O)C(CCC(=O)O)NC(=O)c1ccccc1", "note": "(configuration not stated)", "cell-cell fusion (z-score)": "inactive: 0.781"},
      {"compound": "CCCN(CCC)C(=O)C(CCC(=O)O)NC(=O)c1ccccc1", "note": "(configuration not stated) [Proglumide]", "cell-cell fusion (z-score)": "inactive: 2.82"}
    ]}
  ]
}
